The whole screen tested about 320,000 compounds, of which about 2,100 (0.66%) were called active. This list was built around the results that the source calls inconclusive (neither active nor inactive); the mix of calls is not that of the screen. Calls come from the whole dose curve; as a rule, active = well fitted inhibition curve with a large enough effect in the signal ratio, with a control signal flat (not every such curve was filed as active); inconclusive = small, poorly fitted or top-dose-only effect, or effect the other way, or a change in a side signal; inactive = flat fitted curve, though single readings scatter; the % refers to the signal ratio. Potencies beside an inconclusive call are fits to weak or partial responses and may not hold up.
Experiment: qHTS Assay for Lipid Storage Modulators in Drosophila S3 Cells
Conditions: BODIPY lipid droplet fluorescence, 18-24 h, cells fed with added oleic acid; lipid storage change, negative = inhibition: at 46.1 µM (top of the series) unless noted
Summary of the method: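 Drosophila S3 cells loaded with oleic acid (400 uM, as added) and compounds at several concentrations; lipid droplets imaged by 488-nm laser-scanning cytometry, 500–530 nm intensity and object ratio to cell channel. Percent activity normalized to 20 uM Triacsin C.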
% is set by controls: 0 for no effect and ±100 for the full control effect; potency is the fitted concentration of half-maximal effect.

Potency, inconclusive:
O=C(O)C1C2C=CC3(CN(c4cccc(C(F)(F)F)c4)C(=O)C13)O2 (stereo unspecified) 29.1 µM [falling, single point]
C/C(=N/NC(=O)c1ccc(C)s1)c1cccnc1 29.1 µM [activator, single point]
O=C(O)CN1C(=O)Nc2ccc(Br)cc2C1c1ccccc1 (stereo unspecified) 29.1 µM [activator, single point]
COc1ccccc1N1CCN(C(=O)C(C)NC(=O)c2ccco2)CC1 (stereo unspecified) 3.26 µM [activator, partial curve]
CCc1ccc(C(=O)NNC(=O)c2ccc3c(=O)n4c(nc3c2)CCC4)cc1 20.6 µM [activator, single point]
O=C1c2cccnc2C(=O)N1Cc1ccc(S(=O)(=O)N2CCOc3ccccc32)cc1 0.58 µM [activator, single point]
Cc1ccc(-c2c3c(=O)n(C)c(=O)n(C)c3cn2Cc2cccnc2)cc1 0.651 µM [falling, single point]
COc1ccc2[nH]cc(CCNC(=O)Cc3ccc(Br)cc3)c2c1 20.6 µM [falling, single point]
COc1ccc(CCn2c(=N)c(C(=O)NC3CCCCC3)cc3c(=O)n4ccccc4nc32)cc1 29.1 µM [activator, single point]
Cc1ccc(N2C(=O)CSC2c2cccs2)cc1 (stereo unspecified) 4.11 µM [activator, full curve]
C[C@]12C(=O)N(c3ccc(F)cc3)C(=O)N1[C@@H]1c3ccccc3OC[C@@H]1[C@H]2c1ccccc1 29.1 µM [activator, single point]
COc1ccc(/C=C\C(=O)CC(O)(c2ccccc2)C(F)(F)F)cc1 (stereo unspecified) 0.164 µM [activator, full curve]
CN1CC[n+]2c(CN3C(=O)c4ccccc4C3=O)csc21 0.0058 µM [falling, full curve]
CC(=O)N1CCN(c2nc3ccc(Br)cc3s2)CC1 1.3 µM [activator, full curve]
O=C(CCl)N(c1ccccc1)c1ccccc1 23.1 µM [falling, single point]
CC(C)OC(=O)c1cc(Cl)c(=O)n(Cc2ccc(Cl)cc2Cl)c1 2.59 µM [activator, partial curve]
Cn1c(/C(C#N)=C(\O)c2ccc([N+](=O)[O-])cc2)nc2ccccc21 4.61 µM [falling, single point]
Cc1ccc(SCCNC(=O)C(C)C)cc1 2.91 µM [falling, full curve]
CCOC(=O)C1=C(CNCc2ccc(C)cc2)NC(=O)NC1c1cc(C)ccc1C (stereo unspecified) 2.31 µM [activator, partial curve]
CN1/C(=C\C(=O)COC(=O)CN2C(=O)C3CC=CCC3C2=O)C(C)(C)c2ccccc21 (stereo unspecified) 29.1 µM [falling, single point]
COC(=O)C1=C(C)NC(C)=C(C(=O)OCCN(C)Cc2ccccc2)C1c1cccc([N+](=O)[O-])c1 (stereo unspecified) 2.06 µM [activator, full curve, poor fit]
COc1ccc(N2CCN(C(=O)c3ccc(Cl)c(S(=O)(=O)N4CCCC4)c3)CC2)cc1 0.58 µM [activator, full curve]

Potency, active:
CN(C)S(=O)(=O)N1CCN(C(=O)c2ccccc2)CC1 23.1 µM

Lipid storage change, negative = inhibition, inconclusive:
CCOC(=O)CNC(=O)CSc1nc(-c2ccc(C)cc2)ns1 1.77%
COc1ccc(OCCCC(=O)ON=C(N)c2ccccc2C)cc1 17.8%
CCOC(=O)CN1C(=O)CSc2ccccc21 11.3%
CCCN(CC1CC1)C(=S)NC(=O)c1ccc(S(=O)(=O)N2CCOCC2)cc1 6.42%
COCCCNC(=O)CN1CCN(Cc2ccccc2Cl)C1=O -4.08% [at 9.22 µM]
CC(C)C(=O)Nc1c(-c2ccccc2Cl)c(=O)c2ccccc2n1C 48%
CN(C(=O)CC1C(=O)NCCN1Cc1ccc2ccccc2c1)C1CCOCC1 (stereo unspecified) -45.8%
CCC1CC2(C)NC(=O)c3c(sc4c3CC(C)(C)OC4)N2C1=O (stereo unspecified) 4.13%
CCN1CCN(c2nc3c(c(=O)[nH]c(=O)n3C)n2Cc2ccccc2F)CC1 8.59%
CC(C)NC(=O)COC(=O)c1cc(Br)ccc1Cl 14.2%
CC(C)(C)NS(=O)(=O)c1ccc(OCC(=O)NCC2CCCO2)cc1 (stereo unspecified)
COc1cccc(NC(=O)c2cc([N+](=O)[O-])ccc2N2CCN(C)CC2)c1 -21.8%
N#Cc1ccc(OCC(=O)N2CCCC2=O)cc1 3.59%
Cc1[nH]c2ccccc2c1C(=O)COC(=O)c1c(-c2c(F)cccc2Cl)noc1C -15.9%
Brc1cccc(-c2nnc3sc(CN4CCCCC4)cn23)c1 28%
Cc1ccc(C)c(N2CCN(S(=O)(=O)c3ccc(-c4ccc(=O)[nH]n4)o3)CC2)c1 -129%
COC(=O)c1cc(C(=O)N2CCN(c3ccccc3OC)CC2)cc([N+](=O)[O-])c1 3.08%
CC1(C)CC(=O)c2sc(NC(=O)c3ccccc3)nc2C1 -12%
O=C(Cn1nc(-c2ccccc2)c2ccccc2c1=O)Nc1ccc2c(c1)nc1n2CCOC1 23.9%
Cc1ccc(Nc2nc(Cl)c(C=O)s2)cc1 -12.7%
CCOC(=O)C1=C(C)Nc2ccccc2N=C1NC(=O)c1cc(C)on1 10.9%
COc1ccccc1C(OC(=O)c1ccco1)C(=O)NCc1ccc(F)cc1 (stereo unspecified) -22.1%

Three compounds out of the list, ordered by heavy-atom count, ascending:
Lipid storage change, negative = inhibition, inconclusive:
COCCCNC(=O)CN1CCN(Cc2ccccc2Cl)C1=O -4.08% [at 9.22 µM]
COc1cccc(NC(=O)c2cc([N+](=O)[O-])ccc2N2CCN(C)CC2)c1 -21.8%
CCCN(CC1CC1)C(=S)NC(=O)c1ccc(S(=O)(=O)N2CCOCC2)cc1 6.42%

Next part.

Lipid storage change, negative = inhibition, inactive:
COc1cccc(C2/C(=C(/O)c3ccc4c(c3)OCO4)C(=O)C(=O)N2CCN2CCOCC2)c1 (stereo unspecified)

From PubChem BioAssay AID2685 (National Center for Advancing Translational Sciences (NCATS), 2010)
